Source: PubChem BioAssay AID686937 (Drosophila RNAi Screening Center, 2013)
The screen tested about 23,000 reagents; shown is a random part of those with a known target gene and a result. 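Reduced-secretion tags in replicate 1 do not always agree with the z-scores; no criterion for assigning the tags was given.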 Not given: the amount of reagent.

Aim: 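Genes in the fly needed for secretion of protein constitutively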 (primary screen)
Cells: Drosophila S2 cells expressing secreted horseradish peroxidase
Reagents: long dsRNA against Drosophila genes
Duration: about 5.5 days (5 days dsRNA, then 12 h reporter induction)
Treatment: reporter expression induced after 5 days of dsRNA, read 12 h later; inducer not stated
Measurement: 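After 5 days of dsRNA and 12 h of reporter induction, medium peroxidase read by chemiluminescence and scored as per-plate z-score; higher values mean more reporter released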
Reading the numbers: z-score: higher = more reporter secreted into medium

no.	gene knocked down	amplicon	z-score, replicate 1	z-score, replicate 2	phenotype, replicate 1
1	E2f1 (E2F transcription factor 1)	DRSC16655	-1.5	-0.52	reduced secretion
2	Frq2 (Frequenin 2)	DRSC20245	0.47	0.53	
3	rk (rickets)	DRSC03602	-0.22	0.12	
4	CG43077	DRSC19168	-0.11	1.06	
5	Cyp313a5 (Cytochrome P450 313a5)	DRSC16628	0.42	0.31	
6	Dgkepsilon (Diacyl glycerol kinase epsilon)	DRSC07399	0.13	0.34	
7	Hmx (H6-like-homeobox)	DRSC15307	-0.88	-0.16	
8	Hmx (H6-like-homeobox)	DRSC15884	0.66	0.64	
9	Hmx (H6-like-homeobox)	DRSC16706	-0.13	-0.17	
10	Hmx (H6-like-homeobox)	DRSC22799	1.75	1.41	
11	CG31705	DRSC01991	-2.57	-1.18	reduced secretion
12	Vps35 (Vacuolar protein sorting 35)	DRSC04519	0.34	0.4	
13	CG15631	DRSC00466	0.1	0.29	
14	CG4101	DRSC10400	-0.17	-0.17	
15	CadN2 (Cadherin-N2)	DRSC03062	0.03	0.42	
16	CadN2 (Cadherin-N2)	DRSC03063	0.27	0.39	
17	CadN2 (Cadherin-N2)	DRSC03064	0.14	0.46	
18	tbrd-2	DRSC07020	0.3	0.36	
19	CG4730	DRSC15633	0.23	0.37	
20	CG33095	DRSC14441	0.29	0.27	
21	Trp1 (Translocation protein 1)	DRSC03465	0.32	0.48	
22	CG13062	DRSC09945	0.06	0.22	
23	CG30429	DRSC04040	0.45		
24	Megf8 (Multiple EGF like domains 8)	DRSC03058	0.24	0.53	
25	CG32647	DRSC19690	0.27	0.15	
26	CG32647	DRSC19878	0.1	-0.57	
27	abd-A (abdominal A)	DRSC13179	0.41	0.6	
28	abd-A (abdominal A)	DRSC16897	-8.54	-4.77	reduced secretion
29	eEF1beta (eukaryotic translation elongation factor 1 beta)	DRSC07419	0.41	0.26	
30	CG3347	DRSC00597	0.17	0.39	

A few values from above.
Under “z-score, replicate 1”, CG13062 [DRSC09945] has 0.06
Entry for CadN2 (Cadherin-N2) [DRSC03063] under “z-score, replicate 1”: 0.27
Value for Hmx (H6-like-homeobox) [DRSC22799] under “z-score, replicate 1”: 1.75
Under “z-score, replicate 2”, rk (rickets) [DRSC03602] is entered as 0.12

Additional entries follow:
no.	gene knocked down	amplicon	z-score, replicate 1	z-score, replicate 2	phenotype, replicate 1
31	MED8 (Mediator complex subunit 8)	DRSC06426	-3.77	-3.57	reduced secretion
32	elm (ethanol sensitive with low memory)	DRSC12309	-0.06	0	
33	dah (discontinuous actin hexagon)	DRSC20320	0.36	0.36	
34	Ir7a (Ionotropic receptor 7a)	DRSC17866	-0.16	0.03	
35	Hsp70Bc (Heat shock protein 70 Bc)	DRSC16053	-0.63	-0.34	
36	CG32161	DRSC22128	-0.61	0.07	
37	Atg10 (Autophagy-related 10)	DRSC06172	0.46	0.34	
38	Cdk7 (Cyclin-dependent kinase 7)	DRSC18451	-0.06	-0.2	
39	CenG1A (Centaurin gamma 1A)	DRSC02538	-0.29	-0.27	
40	CenG1A (Centaurin gamma 1A)	DRSC03505	0.04	0.18	
41	CenG1A (Centaurin gamma 1A)	DRSC03506	0.31	0.16	
42	CG42821	DRSC13231	0.51	0.21	
43	r2d2	DRSC03014	-0.15	0.2	
44	CG3699	DRSC18171	0.5	0.44	
45	CG3699	DRSC18642	0.5	0.51	
46	CG32488	DRSC08549	0.75	0.26	
47	CG32488	DRSC21537	0.79	1.01	
48	CG32237	DRSC08312	0.33	0.26	
49	CG32237	DRSC08315	0.18	0.35	
50	CG13385	DRSC02259	0.23	0.27	
51	papi	DRSC00693	0.58	0.39	
52	vir-1 (virus-induced RNA 1)	DRSC02501	-0.32	-0.17	
53	vir-1 (virus-induced RNA 1)	DRSC02863	-0.34	0.12	
54	eya (eyes absent)	DRSC03510	0.23	0.27	
55	Tcs4 (Threonyl-carbamoyl synthesis 4)	DRSC19587	0.22	0.46	
56	CG10713	DRSC09786	0.54	0.41	
